Results on one substance are retold here after PMC4717182.

Sequences of proteins named here, by UniProt entry; tags and fusion partners are left off.
UniProt P58801: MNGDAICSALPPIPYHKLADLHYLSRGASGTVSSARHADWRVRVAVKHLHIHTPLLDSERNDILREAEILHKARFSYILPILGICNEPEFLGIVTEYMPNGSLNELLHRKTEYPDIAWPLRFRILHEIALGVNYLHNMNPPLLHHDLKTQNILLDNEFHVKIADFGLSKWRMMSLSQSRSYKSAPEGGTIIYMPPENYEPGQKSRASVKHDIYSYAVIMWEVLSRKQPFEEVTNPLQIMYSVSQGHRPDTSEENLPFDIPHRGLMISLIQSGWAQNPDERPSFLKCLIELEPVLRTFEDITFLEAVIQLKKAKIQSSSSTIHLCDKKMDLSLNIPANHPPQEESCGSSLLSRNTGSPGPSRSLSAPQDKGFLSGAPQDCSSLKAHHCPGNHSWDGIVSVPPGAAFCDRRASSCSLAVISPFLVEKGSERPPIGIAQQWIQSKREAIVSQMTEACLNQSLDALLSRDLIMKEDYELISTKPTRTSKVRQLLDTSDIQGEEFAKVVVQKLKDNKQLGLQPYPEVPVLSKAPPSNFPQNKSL

For the assay, the target named is T1, CYLD (deubiquitinating enzyme), endogenous in murine bone marrow-derived macrophages (mouse (endogenous in BMDM)) (UniProt Q80TQ2).
T1 sequence: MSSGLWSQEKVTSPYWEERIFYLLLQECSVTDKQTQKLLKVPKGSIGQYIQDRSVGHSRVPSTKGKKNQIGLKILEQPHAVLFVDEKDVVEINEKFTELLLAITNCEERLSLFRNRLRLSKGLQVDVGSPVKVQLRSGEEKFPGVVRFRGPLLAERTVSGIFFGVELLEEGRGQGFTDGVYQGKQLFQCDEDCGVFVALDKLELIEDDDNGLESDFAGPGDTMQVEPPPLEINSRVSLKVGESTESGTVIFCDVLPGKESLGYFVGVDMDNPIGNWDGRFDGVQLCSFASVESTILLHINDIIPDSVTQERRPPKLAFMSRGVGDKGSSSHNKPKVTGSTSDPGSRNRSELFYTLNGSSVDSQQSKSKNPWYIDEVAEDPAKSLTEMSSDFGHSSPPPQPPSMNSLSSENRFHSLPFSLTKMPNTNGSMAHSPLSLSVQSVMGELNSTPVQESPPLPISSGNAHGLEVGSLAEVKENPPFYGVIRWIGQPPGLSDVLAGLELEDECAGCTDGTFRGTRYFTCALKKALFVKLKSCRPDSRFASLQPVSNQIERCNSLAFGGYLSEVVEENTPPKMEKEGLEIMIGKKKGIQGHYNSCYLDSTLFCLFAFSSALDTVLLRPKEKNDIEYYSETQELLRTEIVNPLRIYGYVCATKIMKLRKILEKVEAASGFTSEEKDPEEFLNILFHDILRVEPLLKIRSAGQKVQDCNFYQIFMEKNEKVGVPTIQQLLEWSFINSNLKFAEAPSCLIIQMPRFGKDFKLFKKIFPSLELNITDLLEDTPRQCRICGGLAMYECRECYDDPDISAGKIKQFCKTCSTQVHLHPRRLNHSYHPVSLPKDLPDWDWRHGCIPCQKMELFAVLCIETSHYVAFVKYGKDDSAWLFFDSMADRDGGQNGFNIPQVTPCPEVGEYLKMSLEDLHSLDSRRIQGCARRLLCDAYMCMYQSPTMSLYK
Briefly: co-IP; anti-CYLD antibody on lysates of IFN-γ stimulated, Lm-infected (MOI 5:1, 24 h) and uninfected WT and Cyld-/- BMDM; Gamma Bind G Sepharose, 4°C overnight; Western blot for CYLD and RIPK2. (A western blot detects proteins with antibodies after separation by electrophoresis.)

No constants are given. Whether binding was seen depends on the method and setting. In cells and extracts the contact can be indirect. Some results given as binding are weak or reduced against the parent protein; the word gives no strength.

“receptor-interacting serine/threonine kinase 2 (RIPK2), endogenous in murine bone marrow-derived macrophages (from UniProt P58801 1-539) (enzyme)”: the binding entry is listed as “binds”.
